Tested on: plasma metabolites
Experiment: Transversal pharmacometabolomics of sotorasib in rat plasma (pre-dose vs post-dose)
Assay type: in vivo, Sprague–Dawley rats
Settings: rats, oral 10 mg/kg
Description: For metabolic profiling analysis, the HPLC-MS/MS system (Spark Holland; API 5500, SCIEX, Concord, Canada) was adopted for targeted metabolomic analysis. The chromatography columns (Waters BEH, HSS T3) and elution solvent (gradient elution) were all evaluated and employed according to our previous study ([18]). The column temperature was set at 20°C with an injection volume of 5 μl. The water and organic phases (ACN/IPA = 7:2, v/v) contained 0.1% formic acid, and gradient elution was achieved within 27 min. The detailed optimized MRM parameters are shown in Supplementary Table S1 and in a previous study ([18]). For the analysis of the metabolic characteristics, a one-step protein precipitation method was also employed. Briefly, an aliquot of 50 μl plasma was added with 10 μl IS mixture (eight ISs, 400 ng/ml) and 140 μl precipitation solution (−20°C methanol). Afterward, the mixture was vortexed for 2 min and centrifuged (13,500 rpm, 10 min at 4°C). The upper solutions were injected into the HPLC-MS/MS system for analysis. A total of 289 metabolites, which contained amino acids, bile acids, and vitamins, were included in the metabolomics method being considered. All biologically active metabolites can be quantitated within 27 min. The calculation linearity ranged from 0.2 to 5,000 ng/ml, which provided powerful capability for the successful quantitation of low-abundance compounds. For the longitudinal PM of sotorasib, the same plasma samples were utilized before (0 h, pre-dose) and after administration (post-dose, until 8 h). For the transversal PM, raw metabolomic data were divided into two parts: before (pre-dose) and after (post-dose) administration. The metabolomic profiling and trajectory effects of sotorasib were investigated and analyzed using multiple variable statistical analysis methods. Raw data files were processed and checked using Analyst 1.6.3 and MultiQuant 3.0.1 (SCIEX, Concord, Canada). The concentrations of the analytes were calculated according to the calibration curve. Pharmacokinetic parameters, such as C max and the area under the curve (AUC), were calculated using Phoenix WinNonLin software (Pharsight 8.3, Mountain View, CA, USA). Pearson’s correlation was employed to investigate the correlation between the metabolomic data and PK parameters using IBM SPSS 26.0 (Armonk, NY, USA). SIMCA-P software (v14.1; Umetric, Umeå, Sweden) was employed to build mathematical models, including unsupervised principal component analysis (PCA), supervised orthogonal projection to latent structures discriminant analysis (OPLS-DA), and partial least squares (PLS). Compounds with values of variable importance in the projections (VIP) >1 and statistical significance of p < 0.05 were selected for further identification and metabolic pathway analysis. […]

For `C=CC(=O)N1CCN(c2nc(=O)n(-c3c(C)ccnc3C(C)C)c3nc(-c4c(O)cccc4F)c(F)cc23)[C@@H](C)C1` [Sotorasib], the “number of significantly changed metabolites between pre- and post-dose” value (plasma) was 67, the “number of metabolic pathways disturbed” value (plasma, most significant: taurine and hypotaurine metabolism) was 19 and the “number of metabolites downregulated after dosing” value (VIP >1, FC <0.5, p < 0.05) was 11. The “number of metabolites upregulated after dosing” value (VIP >1, FC >2, p < 0.05) was “six”.
